Laboratory results taken from the supplement of paper PMC10849652.
This is one part of the list.

By UniProt entry, the sequences of proteins in these tests, tags left out. Where a name states a change or a piece, a line headed by the entry shows the natural chain unless it says otherwise.
UniProt P78344: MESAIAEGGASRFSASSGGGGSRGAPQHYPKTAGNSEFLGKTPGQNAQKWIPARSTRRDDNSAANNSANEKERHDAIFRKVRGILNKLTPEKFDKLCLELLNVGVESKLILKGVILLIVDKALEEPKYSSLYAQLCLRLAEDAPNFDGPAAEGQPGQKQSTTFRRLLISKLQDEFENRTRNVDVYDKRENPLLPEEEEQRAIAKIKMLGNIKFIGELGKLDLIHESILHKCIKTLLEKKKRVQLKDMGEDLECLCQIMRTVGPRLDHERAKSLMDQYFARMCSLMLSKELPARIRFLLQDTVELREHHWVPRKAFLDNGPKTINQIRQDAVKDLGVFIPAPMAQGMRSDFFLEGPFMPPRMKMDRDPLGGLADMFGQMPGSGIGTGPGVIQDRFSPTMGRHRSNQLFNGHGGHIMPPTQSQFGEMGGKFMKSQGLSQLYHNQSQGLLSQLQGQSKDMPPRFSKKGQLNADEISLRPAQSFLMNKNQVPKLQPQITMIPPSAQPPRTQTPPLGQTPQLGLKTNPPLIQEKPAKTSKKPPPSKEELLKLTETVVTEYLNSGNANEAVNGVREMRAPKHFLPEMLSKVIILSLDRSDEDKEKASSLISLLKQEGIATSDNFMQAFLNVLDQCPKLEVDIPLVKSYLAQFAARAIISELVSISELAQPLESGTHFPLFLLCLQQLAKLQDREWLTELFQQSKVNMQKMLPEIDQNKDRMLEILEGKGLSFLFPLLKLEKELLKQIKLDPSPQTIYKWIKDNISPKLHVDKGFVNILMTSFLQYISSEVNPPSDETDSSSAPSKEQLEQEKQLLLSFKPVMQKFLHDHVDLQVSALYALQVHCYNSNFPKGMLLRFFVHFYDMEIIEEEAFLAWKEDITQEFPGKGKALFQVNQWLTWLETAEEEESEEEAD
UniProt O15372, whole entry, looked up: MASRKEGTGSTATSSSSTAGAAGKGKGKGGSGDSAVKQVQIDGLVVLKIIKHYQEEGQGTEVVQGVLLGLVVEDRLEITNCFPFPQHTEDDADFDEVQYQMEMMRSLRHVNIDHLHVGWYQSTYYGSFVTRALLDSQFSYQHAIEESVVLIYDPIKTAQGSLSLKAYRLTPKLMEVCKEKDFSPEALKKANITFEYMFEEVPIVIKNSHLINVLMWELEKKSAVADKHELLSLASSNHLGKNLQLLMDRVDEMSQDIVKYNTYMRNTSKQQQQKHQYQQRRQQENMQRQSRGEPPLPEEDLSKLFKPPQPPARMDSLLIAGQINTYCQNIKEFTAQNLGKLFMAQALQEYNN
UniProt Q9GZV4: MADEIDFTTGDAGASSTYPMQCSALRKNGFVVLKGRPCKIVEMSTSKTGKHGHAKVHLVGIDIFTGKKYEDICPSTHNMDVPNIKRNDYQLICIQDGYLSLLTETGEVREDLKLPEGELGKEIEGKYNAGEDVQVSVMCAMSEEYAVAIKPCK
UniProt P13929, whole entry, looked up: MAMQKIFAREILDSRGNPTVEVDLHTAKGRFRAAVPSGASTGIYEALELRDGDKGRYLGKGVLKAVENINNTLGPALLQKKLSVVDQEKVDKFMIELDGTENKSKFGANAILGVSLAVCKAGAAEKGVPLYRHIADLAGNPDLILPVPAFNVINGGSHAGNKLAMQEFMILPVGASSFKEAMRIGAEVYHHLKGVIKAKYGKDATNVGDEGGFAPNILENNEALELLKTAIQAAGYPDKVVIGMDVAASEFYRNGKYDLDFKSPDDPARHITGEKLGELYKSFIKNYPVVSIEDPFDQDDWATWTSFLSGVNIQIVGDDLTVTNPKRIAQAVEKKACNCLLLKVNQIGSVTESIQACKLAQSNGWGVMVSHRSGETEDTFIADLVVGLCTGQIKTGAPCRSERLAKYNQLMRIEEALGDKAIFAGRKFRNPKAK
UniProt Q9BQI3, whole entry, looked up: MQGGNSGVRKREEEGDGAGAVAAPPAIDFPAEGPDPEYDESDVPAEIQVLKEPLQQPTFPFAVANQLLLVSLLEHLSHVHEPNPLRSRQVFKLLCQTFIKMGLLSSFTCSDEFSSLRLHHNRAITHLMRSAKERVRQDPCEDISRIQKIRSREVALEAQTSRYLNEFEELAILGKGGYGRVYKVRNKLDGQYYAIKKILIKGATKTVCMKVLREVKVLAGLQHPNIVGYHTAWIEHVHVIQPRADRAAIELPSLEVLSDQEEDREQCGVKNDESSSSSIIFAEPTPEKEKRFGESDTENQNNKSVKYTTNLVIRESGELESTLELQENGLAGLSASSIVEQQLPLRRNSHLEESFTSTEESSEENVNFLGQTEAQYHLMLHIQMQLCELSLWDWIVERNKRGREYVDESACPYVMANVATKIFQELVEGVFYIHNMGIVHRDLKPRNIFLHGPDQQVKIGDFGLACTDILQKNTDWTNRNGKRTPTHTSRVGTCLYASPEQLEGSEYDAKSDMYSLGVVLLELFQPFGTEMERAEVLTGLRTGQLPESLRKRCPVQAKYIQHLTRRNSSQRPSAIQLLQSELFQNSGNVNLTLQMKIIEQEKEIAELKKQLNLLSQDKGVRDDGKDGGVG
UniProt P28715: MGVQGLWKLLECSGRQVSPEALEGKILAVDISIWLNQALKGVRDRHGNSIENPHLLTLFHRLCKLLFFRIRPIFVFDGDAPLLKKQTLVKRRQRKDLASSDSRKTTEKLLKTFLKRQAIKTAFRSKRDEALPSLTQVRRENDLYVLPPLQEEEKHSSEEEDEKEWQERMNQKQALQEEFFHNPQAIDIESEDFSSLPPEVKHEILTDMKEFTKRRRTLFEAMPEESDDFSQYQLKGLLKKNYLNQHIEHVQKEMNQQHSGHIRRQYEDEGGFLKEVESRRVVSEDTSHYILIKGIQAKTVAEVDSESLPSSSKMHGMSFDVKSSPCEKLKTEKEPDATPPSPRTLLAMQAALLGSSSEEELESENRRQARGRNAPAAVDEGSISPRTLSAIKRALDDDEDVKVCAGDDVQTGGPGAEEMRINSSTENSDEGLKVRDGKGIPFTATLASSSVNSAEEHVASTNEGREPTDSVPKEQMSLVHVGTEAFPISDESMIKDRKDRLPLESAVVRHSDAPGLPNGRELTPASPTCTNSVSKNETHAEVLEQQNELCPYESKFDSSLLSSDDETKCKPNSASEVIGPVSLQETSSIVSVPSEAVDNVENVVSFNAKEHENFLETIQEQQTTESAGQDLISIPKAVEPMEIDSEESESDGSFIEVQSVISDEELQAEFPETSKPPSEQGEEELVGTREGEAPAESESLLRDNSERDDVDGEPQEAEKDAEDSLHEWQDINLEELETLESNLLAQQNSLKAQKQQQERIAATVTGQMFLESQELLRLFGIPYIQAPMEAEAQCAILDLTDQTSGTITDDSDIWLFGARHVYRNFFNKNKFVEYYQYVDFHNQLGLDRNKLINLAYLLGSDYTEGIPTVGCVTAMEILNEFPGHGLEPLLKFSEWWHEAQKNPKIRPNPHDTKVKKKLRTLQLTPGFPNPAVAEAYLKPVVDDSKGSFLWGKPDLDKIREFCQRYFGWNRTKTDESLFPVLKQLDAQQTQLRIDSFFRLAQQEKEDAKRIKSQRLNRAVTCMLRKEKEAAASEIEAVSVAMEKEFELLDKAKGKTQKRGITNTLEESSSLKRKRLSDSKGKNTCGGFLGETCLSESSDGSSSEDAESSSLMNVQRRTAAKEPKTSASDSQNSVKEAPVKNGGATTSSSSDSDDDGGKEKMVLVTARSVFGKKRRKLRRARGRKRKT
UniProt Q04637, whole entry, looked up: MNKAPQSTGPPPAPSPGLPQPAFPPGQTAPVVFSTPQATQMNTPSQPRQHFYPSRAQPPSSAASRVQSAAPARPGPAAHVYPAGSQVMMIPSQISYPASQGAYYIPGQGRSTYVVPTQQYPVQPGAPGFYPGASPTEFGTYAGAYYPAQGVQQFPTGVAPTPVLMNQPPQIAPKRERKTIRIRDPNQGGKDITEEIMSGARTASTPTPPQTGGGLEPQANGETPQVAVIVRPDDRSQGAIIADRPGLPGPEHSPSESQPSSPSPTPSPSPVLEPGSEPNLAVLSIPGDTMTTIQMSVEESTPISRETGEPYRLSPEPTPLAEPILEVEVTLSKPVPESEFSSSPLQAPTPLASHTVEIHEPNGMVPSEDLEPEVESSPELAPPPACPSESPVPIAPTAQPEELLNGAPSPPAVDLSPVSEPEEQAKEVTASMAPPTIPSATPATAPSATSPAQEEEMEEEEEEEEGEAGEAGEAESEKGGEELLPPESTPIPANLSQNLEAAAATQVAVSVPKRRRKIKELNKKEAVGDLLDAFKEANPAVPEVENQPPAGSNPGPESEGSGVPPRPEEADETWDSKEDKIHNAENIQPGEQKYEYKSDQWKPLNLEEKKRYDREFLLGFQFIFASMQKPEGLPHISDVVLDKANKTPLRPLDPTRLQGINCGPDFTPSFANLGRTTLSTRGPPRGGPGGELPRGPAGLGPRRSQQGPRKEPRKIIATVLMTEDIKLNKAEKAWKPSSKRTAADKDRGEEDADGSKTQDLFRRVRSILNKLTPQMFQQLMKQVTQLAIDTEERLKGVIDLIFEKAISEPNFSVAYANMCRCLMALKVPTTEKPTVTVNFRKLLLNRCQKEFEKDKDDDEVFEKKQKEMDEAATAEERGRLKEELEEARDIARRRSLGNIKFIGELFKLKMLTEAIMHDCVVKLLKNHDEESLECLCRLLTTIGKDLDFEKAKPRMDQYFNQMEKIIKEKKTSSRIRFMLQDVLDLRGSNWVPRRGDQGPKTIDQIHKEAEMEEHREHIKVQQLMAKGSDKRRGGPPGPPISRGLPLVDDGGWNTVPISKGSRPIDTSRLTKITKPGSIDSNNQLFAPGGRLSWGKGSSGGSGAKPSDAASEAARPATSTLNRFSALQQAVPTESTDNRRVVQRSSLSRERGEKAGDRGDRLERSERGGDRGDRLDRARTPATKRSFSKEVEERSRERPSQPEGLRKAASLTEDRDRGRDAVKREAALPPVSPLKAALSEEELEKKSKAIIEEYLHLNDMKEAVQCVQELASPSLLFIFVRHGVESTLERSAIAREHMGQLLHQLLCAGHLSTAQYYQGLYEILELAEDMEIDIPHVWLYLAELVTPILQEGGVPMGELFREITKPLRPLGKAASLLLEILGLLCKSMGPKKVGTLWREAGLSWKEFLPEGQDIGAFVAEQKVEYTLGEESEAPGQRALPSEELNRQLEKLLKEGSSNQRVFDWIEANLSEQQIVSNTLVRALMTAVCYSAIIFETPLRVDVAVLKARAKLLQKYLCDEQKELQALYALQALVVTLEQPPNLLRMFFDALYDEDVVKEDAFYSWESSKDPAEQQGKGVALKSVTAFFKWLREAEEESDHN
UniProt Q92979: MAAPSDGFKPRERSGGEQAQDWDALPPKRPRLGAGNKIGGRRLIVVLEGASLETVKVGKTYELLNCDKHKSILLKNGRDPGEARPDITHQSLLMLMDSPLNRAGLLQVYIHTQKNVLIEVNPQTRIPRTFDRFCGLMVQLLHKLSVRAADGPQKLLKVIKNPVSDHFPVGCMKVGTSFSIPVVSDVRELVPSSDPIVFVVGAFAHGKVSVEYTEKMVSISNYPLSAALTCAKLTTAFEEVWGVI
UniProt P84090, whole entry, looked up: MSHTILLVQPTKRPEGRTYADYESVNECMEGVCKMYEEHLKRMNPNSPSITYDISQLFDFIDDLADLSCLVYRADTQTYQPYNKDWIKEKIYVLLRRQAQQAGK
UniProt O75821, whole entry, looked up: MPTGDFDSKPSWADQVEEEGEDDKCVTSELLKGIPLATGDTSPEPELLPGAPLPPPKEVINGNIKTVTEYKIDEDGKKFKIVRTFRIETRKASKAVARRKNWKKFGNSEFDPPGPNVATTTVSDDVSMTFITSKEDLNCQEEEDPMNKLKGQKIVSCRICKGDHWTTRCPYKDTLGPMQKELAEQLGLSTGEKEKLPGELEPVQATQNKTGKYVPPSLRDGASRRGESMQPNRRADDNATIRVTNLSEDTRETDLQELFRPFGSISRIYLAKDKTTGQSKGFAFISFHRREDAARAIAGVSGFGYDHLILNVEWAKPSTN
UniProt P32519: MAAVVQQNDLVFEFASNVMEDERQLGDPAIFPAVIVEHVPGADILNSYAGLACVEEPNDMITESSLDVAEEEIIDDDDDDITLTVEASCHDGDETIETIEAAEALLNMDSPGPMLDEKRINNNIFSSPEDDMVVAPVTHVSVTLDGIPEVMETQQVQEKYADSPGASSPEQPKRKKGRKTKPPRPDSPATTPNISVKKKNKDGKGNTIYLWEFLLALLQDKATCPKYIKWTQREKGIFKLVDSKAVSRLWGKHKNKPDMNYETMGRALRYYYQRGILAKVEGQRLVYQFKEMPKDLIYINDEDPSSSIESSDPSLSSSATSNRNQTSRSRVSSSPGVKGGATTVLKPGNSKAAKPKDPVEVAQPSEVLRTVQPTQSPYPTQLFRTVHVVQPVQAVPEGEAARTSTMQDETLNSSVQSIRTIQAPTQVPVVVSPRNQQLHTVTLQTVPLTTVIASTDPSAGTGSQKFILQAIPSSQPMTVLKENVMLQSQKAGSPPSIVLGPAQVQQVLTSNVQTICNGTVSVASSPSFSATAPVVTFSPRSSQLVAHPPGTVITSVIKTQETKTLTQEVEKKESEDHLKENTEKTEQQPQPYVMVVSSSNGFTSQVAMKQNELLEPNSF

Assays:
Assay in all cases: log2 fold change, soluble protein after heating vs DMSO (PISA); higher = thermal stabilisation; K562 lysate, 10 uM; active = over 0.2 and 3.5 SD of the protein, either way, in both replicates (recomputed)
[1] = compound: NCC(=O)Nc1ccc(-n2nc(C(F)(F)F)cc2-c2ccc3c(ccc4ccccc43)c2)cc1
In short: (§1)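 Log-two fold change in thermal stability relative to solvent controls is reported from duplicates. For each sample, crude K562 extract from dounce-homogenised pellets in PBS pH 7.4 with 1 mM MgCl2, at 1 mg/mL protein, was treated with 10 μM compound for 30 min. Aliquots heated for 3 min across 48°C-58°C were pooled, brought to 0.5% NP-40 at 4°C and cleared at 21,000xg for 90 min. The supernatant was quantified by TMTpro 16plex LC-MS/MS with channel sums equalised.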

vorinostat = compound: O=C(CCCCCCC(=O)Nc1ccccc1)NO [vorinostat]
In short: as §1

silmitasertib = compound: O=C(O)c1ccc2c(c1)nc(Nc1cccc(Cl)c1)c1ccncc12 [silmitasertib]
In short: as §1

[2] = compound: O=C1NC(=O)C(c2cnc3ccccn23)=C1c1cn2c3c(cc(F)cc13)CN(C(=O)N1CCCCC1)CC2
In short: as §1

entospletinib = compound: c1cn2cc(-c3ccc4cn[nH]c4c3)nc(Nc3ccc(N4CCOCC4)cc3)c2n1 [entospletinib]
In short: as §1

Target	log2 fold change [1]	log2 fold change (vorinostat)	log2 fold change (silmitasertib)	log2 fold change [2]	log2 fold change (entospletinib)
ERCC3 (UniProt P19447)	inactive: 0.027	inactive: -0.148	inactive: 0.04	inactive: -0.016	inactive: -0.006
EIF4G2 (UniProt P78344)	inactive: 0.008	inactive: -0.184	inactive: 0.019	inactive: -0.085	inactive: -0.03
ENO1, A0A2R8YEM5	inactive: -0.032	inactive: 0.119	inactive: -0.005	inactive: 0.017	inactive: 0.04
ERC1 (UniProt X6RLX0)	inactive: 0.02	inactive: 0.084	inactive: -0.011	inactive: -0.015	inactive: -0.05
EIF2D (UniProt P41214)	inactive: 0.03	active: -0.385	inactive: 0.032	inactive: 0.04	inactive: 0.02
ELP2 isoform 6 (UniProt Q6IA86)	inactive: -0.022	inactive: -0.122	inactive: -0.004	inactive: -0.035	inactive: 0.036
EIF3I (UniProt Q13347)	inactive: 0.022	active: -0.316	inactive: 0.061	inactive: -0.005	inactive: 0.005
EIF3H (UniProt O15372)	inactive: 0.001	inactive: 0.022	inactive: 0.009	inactive: -0.011	inactive: 0.014
EIF5A2 (UniProt Q9GZV4)	inactive: 0.115	inactive: -0.107	inactive: 0.015	inactive: -0.088	inactive: 0.011
EPB41L2 (UniProt O43491)	inactive: 0.01	inactive: 0.056	inactive: -0.009	inactive: -0.007	inactive: 0.003
ELOVL1 (UniProt Q9BW60)	inactive: -0.016	inactive: 0.202	inactive: 0.063	inactive: 0.015	inactive: -0.114
ENO3 (UniProt P13929)	inactive: 0.087	inactive: -0.009	inactive: 0.062	inactive: 0.046	inactive: -0.01
EIF2AK1 (UniProt Q9BQI3)	inactive: -0.089	inactive: -0.18	inactive: 0.03	inactive: -0.059	inactive: 0.009
ERCC5 (UniProt P28715)	inactive: 0	inactive: -0.017	inactive: 0.044	inactive: 0.055	inactive: 0.033
ELOB (UniProt Q15370)	inactive: -0.108	inactive: 0.077	inactive: -0.048	inactive: 0.041	inactive: 0.008
EIF4G1 (UniProt Q04637)	inactive: 0.006	inactive: -0.202	inactive: -0.006	inactive: -0.016	inactive: 0.007
ELP5 isoform 4 (UniProt Q8TE02)	inactive: 0.009	inactive: -0.141	inactive: -0.014	inactive: -0.002	inactive: 0.038
EMG1 (UniProt Q92979)	inactive: 0	inactive: -0.107	inactive: 0.04	inactive: -0.005	inactive: 0.026
ENOPH1 (UniProt Q9UHY7)	inactive: 0.036	inactive: 0.131	inactive: -0.013	inactive: -0.006	inactive: -0.006
EIF3F (UniProt O00303)	inactive: -0.025	inactive: -0.065	inactive: 0.005	inactive: -0.053	inactive: 0.038
EIF6 (UniProt P56537)	inactive: 0.079	inactive: 0.047	inactive: -0.033	inactive: -0.003	inactive: 0.001
ERH (UniProt P84090)	inactive: -0.049	inactive: 0.081	inactive: -0.053	inactive: 0.021	inactive: -0.024
EIF3G (UniProt O75821)	inactive: 0.02	inactive: -0.103	inactive: -0.021	inactive: -0.016	inactive: 0.003
EIF2S1 (UniProt P05198)	inactive: 0.013	inactive: 0.106	inactive: 0.004	inactive: -0.013	inactive: 0.007
ELF1 (UniProt P32519)	inactive: 0.058	inactive: -0.105	inactive: 0.009	inactive: -0.043	inactive: 0.048

Looked up above:
Under log2 fold change [2], EIF6 (UniProt P56537) has the entry inactive: -0.003
Under log2 fold change [1], EIF3G (UniProt O75821) has the entry inactive: 0.02
